{"sequences": {"note": "Sequences of proteins named here, by UniProt entry; tags and fusion partners are left off.", "UniProt Q64560, whole entry": "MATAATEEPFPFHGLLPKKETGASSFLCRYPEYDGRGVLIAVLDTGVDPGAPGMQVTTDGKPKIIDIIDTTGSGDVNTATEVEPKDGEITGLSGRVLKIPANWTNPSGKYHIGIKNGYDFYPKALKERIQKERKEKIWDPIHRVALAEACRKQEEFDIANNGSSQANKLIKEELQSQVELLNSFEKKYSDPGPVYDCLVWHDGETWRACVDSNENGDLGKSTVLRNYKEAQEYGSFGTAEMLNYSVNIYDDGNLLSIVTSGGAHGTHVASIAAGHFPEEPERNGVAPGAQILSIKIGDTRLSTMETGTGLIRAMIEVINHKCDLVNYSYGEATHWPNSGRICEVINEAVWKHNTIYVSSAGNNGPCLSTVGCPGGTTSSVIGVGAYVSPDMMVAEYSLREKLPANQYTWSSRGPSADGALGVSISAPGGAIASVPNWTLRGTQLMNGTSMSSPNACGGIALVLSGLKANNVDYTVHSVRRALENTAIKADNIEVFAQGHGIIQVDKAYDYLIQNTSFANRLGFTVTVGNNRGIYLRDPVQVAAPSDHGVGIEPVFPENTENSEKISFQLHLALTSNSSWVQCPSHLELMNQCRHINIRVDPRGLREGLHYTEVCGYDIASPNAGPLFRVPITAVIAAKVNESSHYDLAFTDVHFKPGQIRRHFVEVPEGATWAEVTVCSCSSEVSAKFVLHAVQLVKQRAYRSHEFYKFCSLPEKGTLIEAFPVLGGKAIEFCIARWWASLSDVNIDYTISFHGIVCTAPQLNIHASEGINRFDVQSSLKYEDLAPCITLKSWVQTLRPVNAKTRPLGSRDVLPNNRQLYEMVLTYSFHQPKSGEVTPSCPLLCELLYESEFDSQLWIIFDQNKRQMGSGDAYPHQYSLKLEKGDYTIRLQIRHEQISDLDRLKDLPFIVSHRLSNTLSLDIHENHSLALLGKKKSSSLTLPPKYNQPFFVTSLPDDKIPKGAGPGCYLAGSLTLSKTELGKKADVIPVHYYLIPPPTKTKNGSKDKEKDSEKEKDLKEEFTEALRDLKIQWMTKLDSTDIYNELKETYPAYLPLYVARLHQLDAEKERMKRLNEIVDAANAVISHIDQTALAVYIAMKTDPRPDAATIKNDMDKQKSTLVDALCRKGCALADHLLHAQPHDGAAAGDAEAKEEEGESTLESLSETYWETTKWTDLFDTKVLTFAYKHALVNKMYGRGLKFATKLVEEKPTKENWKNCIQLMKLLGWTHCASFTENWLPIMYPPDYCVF"}, "source": "patent US6403561B1", "about": "“Tripeptidylpeptidase inhibitors” (Institut National de la Sante et de la Recherche Medicale …, priority 1998, dated 2002)", "biological_target": "membrane-bound tripeptidylpeptidase II (Rattus norvegicus, UniProt Q64560)", "test": "Measurement of the activity of membrane-bound tripeptidylpeptidase (release of Amc from A-AP-Amc, fluorimetry)", "conditions": "apparent dissociation constant calculated from the 50% inhibitory concentration and the KM of the substrate (23 μM); rat brain membranes, 50 μM A-AP-Amc", "note": "pKi: −log10 of the molar value. The match of structure and compound is tentative.", "data": [{"smiles": "CCCCNC(=O)[C@@H]1Cc2cc(F)ccc2N1C(=O)[C@@H](N)CC", "values": [{"measurement": "pKi", "result": 8.52}]}, {"smiles": "CCCCNC(=O)[C@H]1Cc2cc(F)ccc2N1C(=O)[C@@H](N)CC", "values": [{"measurement": "pKi", "result": 6.63}]}]}
